The text below walks through data of the supplement of paper PMC11098740.

Where a name gives a salt, the structure may show the parent alone. ± gives the standard deviation of the averaged measurements. Some of the results follow. Many values rest on one well or one pass, so single values are uncertain.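 Test system: a mixed pool of 41 HAP1 clones in which 61 cancer-associated proteins carry fluorescent tags inserted into introns, and each clone is identified from its image pattern. Read-outs are compared with DMSO-treated control wells. The BRD4 degrader dBET6 served as the positive control.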

The test deals with BRD4 (intron 10 mScarlet tag, HAP1) (UniProt O60885). The test can be described thus: BRD4 median nuclear fluorescence intensity change vs DMSO (log2 fold change); higher = more BRD4 protein. As to conditions: 6 h.
On to `CCc1cc2c(N3CCC(C(=O)Nc4cc(C)on4)CC3)ncnc2s1` (10 µM), for which the “BRD4 median nuclear fluorescence intensity change (log2)” value stood at 0.0351.
Consider `N=C(N)NC(=O)Cc1c(Cl)cccc1Cl` [guanfacine] (10 µM), for which the “BRD4 median nuclear fluorescence intensity change (log2)” value was -0.0644.
As to `CO[C@@H]1[C@@H](OC(N)=O)[C@@H](O)[C@H](Oc2ccc3c(O)c(NC(=O)c4ccc(O)c(CC=C(C)C)c4)c(=O)oc3c2C)OC1(C)C` [novobiocin] (10 µM), the “BRD4 median nuclear fluorescence intensity change (log2)” value is 0.139.
For the compound `Nc1nc(Cl)nc2c1ncn2[C@@H]1O[C@H](CO)[C@@H](O)[C@@H]1F` [clofarabine] (0.1 µM), the “BRD4 median nuclear fluorescence intensity change (log2)” value came out at 0.0294 ± 0.012.
The value for `COc1cc2/c(=N/c3ccc(Br)cc3F)nc[nH]c2cc1OCC1CCN(C)CC1` [vandetanib] (20 µM) was 0.158; that for `Cc1cc2cc3c(C)cc(=O)oc3c(C)c2o1` [trioxsalen] (10.0007 µM) was 0.0521.
For the compound `Nc1nc(F)nc2c1ncn2[C@@H]1O[C@H](COP(=O)(O)O)[C@@H](O)[C@@H]1O` [fludarabine phosphate] (20 µM), the “BRD4 median nuclear fluorescence intensity change (log2)” value is 0.192.
Consider `CC(C)NC[C@@H](C(=O)N1CCN(c2ncnc3c2[C@H](C)C[C@H]3O)CC1)c1ccc(Cl)cc1` [ipatasertib dihydrochloride] (20 µM), for which the “BRD4 median nuclear fluorescence intensity change (log2)” value is -0.15.
On to `COc1c(C)c2c(c(O)c1C/C=C(\C)CCC(=O)O)C(=O)OC2` [mycophenolic acid] (10 µM), for which the “BRD4 median nuclear fluorescence intensity change (log2)” value was -0.00152.
As for `Nc1c2c(nc3ccccc13)CCCC2` [tacrine] (9.99926 µM), the “BRD4 median nuclear fluorescence intensity change (log2)” value came to 0.00541.
Turning to `CCOc1cc2ncc(C#N)c(Nc3ccc(OCc4ccccn4)c(Cl)c3)c2cc1NC(=O)/C=C/CN(C)C` [neratinib] (10 µM), the “BRD4 median nuclear fluorescence intensity change (log2)” value was found to be 0.004.
On to `CC(=O)c1ccc(S(=O)(=O)NC(=O)NC2CCCCC2)cc1` [acetohexamide] (10 µM), for which the “BRD4 median nuclear fluorescence intensity change (log2)” value came out at 0.00942.
In the case of `CC1CNc2c(cccc2S(=O)(=O)N[C@@H](CCCNC(=N)N)C(=O)N2CC[C@@H](C)C[C@@H]2C(=O)O)C1` (some centres not stated) [argatroban] (10.0004 µM), the “BRD4 median nuclear fluorescence intensity change (log2)” value was determined as 0.0386.
The figure for `CC(C)[C@H]1CC[C@H](C(=O)N[C@H](Cc2ccccc2)C(=O)O)CC1` [nateglinide] (10 µM) is 0.0176; for `CC(c1cc2ccccc2s1)N(O)C(N)=O` (configuration not stated) [zileuton] (10 µM) it is 0.0541; for `CC(C)(Oc1ccc(Cl)cc1)C(=O)O` [clofibric acid] (10 µM) it is 0.0686.
The figure for `CN(CCOc1ccc(CC2SC(=O)NC2=O)cc1)c1ccccn1` (configuration not stated) [rosiglitazone] (10.0005 µM) is 0.0307; for `COc1ccc(NC(=O)c2ccc(CCl)cc2)cc1` (0.1 µM) it is -0.0273.
In the case of `O=C1OCCN1/N=C/c1ccc([N+](=O)[O-])o1` [furazolidone] (10 µM), the “BRD4 median nuclear fluorescence intensity change (log2)” value was found to be 0.0526.
As for `CCN(CC)C(=O)N1CCN(C)CC1` [diethylcarbamazine] (9.99954 µM), the “BRD4 median nuclear fluorescence intensity change (log2)” value was -0.0152.
On to `N#C[C@@H]1C[C@@H]2C[C@@H]2N1C(=O)[C@@H](N)C12CC3CC(CC(O)(C3)C1)C2` [saxagliptin] (9.99933 µM), for which the “BRD4 median nuclear fluorescence intensity change (log2)” value was -0.0319.
For the compound `CCN(CC)C(=O)/C(C#N)=C/c1cc(O)c(O)c([N+](=O)[O-])c1` [entacapone] (10 µM), the “BRD4 median nuclear fluorescence intensity change (log2)” value was 0.0329.
As for `C/C=C1\NC(=O)[C@H]2CSSCC/C=C/[C@H](CC(=O)N[C@H](C(C)C)C(=O)N2)OC(=O)[C@H](C(C)C)NC1=O` [romidepsin] (10 µM), the “BRD4 median nuclear fluorescence intensity change (log2)” value came out at 0.00917 ± 0.041.
Turning to `c1ccc(CC2=NCCN2)cc1` [tolazoline] (10 µM), the “BRD4 median nuclear fluorescence intensity change (log2)” value came out at 0.0441.
As to `Cc1cc(Nc2ncc(Cl)c(Nc3ccccc3S(=O)(=O)C(C)C)n2)c(OC(C)C)cc1C1CCNCC1` [ceritinib] (10 µM), the “BRD4 median nuclear fluorescence intensity change (log2)” value came out at 0.0564.
The value for `Cc1oncc1C(=O)Nc1ccc(C(F)(F)F)cc1` [leflunomide] (10 µM) was 0.135; that for `CC(=O)OC[C@H]1O[C@@H]([S-])[C@H](OC(C)=O)[C@@H](OC(C)=O)[C@@H]1OC(C)=O.CCP(CC)CC.[Au+]` [auranofin] (10 µM) was 0.0501; that for `CCCCN(CCCC)CC(O)c1cc(Cl)cc2c1-c1ccc(Cl)cc1/C2=C/c1ccc(Cl)cc1` (configuration not stated) [lumefantrine] (10 µM) was 0.128.
The value for `CCC(=O)NCC[C@@H]1CCc2ccc3c(c21)CCO3` [ramelteon] (10 µM) was 0.163; that for `OC(CCCN1CCCCC1)(c1ccccc1)c1ccccc1` [diphenidol] (9.99988 µM) was 0.0706; that for `O=C(O)C1(C(=O)O)CCC1.[NH2-].[NH2-].[Pt+2]` [carboplatin] (20 µM) was 0.159.
The figure for `c1ccc([C@H]2CN3CCSC3=N2)cc1` [levamisole] (10 µM) is 0.0514.
